# Results published in the supplement of paper PMC4604168 (melanoma cell lines).
# Some of the results follow. Single values are uncertain, as repeats are few or missing.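 The apoptosis fraction was the count of cleaved-PARP antibody-stained nuclei relative to all DNA-stained nuclei, imaged in 1,536-well plates. Screening doses were set so most cells survived, and baseline and induced cleaved-PARP levels vary greatly across cell lines.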
# Key:
# Assay in all cases: cleaved PARP positive nuclei fraction relative to DMSO control; melanoma cells; higher = more apoptosis
# Settings in all cases: library dose: low library concentration; 72 h
# 501Mel = tested on: 501Mel
# A101D = tested on: A101D
# A2058 = tested on: A2058
# A375 = tested on: A375
# C32 = tested on: C32
# CBRC013 = tested on: CBRC013 (line from a melanoma biopsy)
# CBRC014 = tested on: CBRC014 (line from a melanoma biopsy)
# CBRC016 = tested on: CBRC016 (line from a melanoma biopsy)
# CBRC017 = tested on: CBRC017 (line from a melanoma biopsy)
Compound,cleaved PARP positive nuclei fraction (501Mel),cleaved PARP positive nuclei fraction (A101D),cleaved PARP positive nuclei fraction (A2058),cleaved PARP positive nuclei fraction (A375),cleaved PARP positive nuclei fraction (C32),cleaved PARP positive nuclei fraction (CBRC013),cleaved PARP positive nuclei fraction (CBRC014),cleaved PARP positive nuclei fraction (CBRC016),cleaved PARP positive nuclei fraction (CBRC017)
"C[C@]1(c2nc3c(C(N)=O)cccc3[nH]2)CCCN1 [Veliparib] + CC(C)CCN1c2nc(Nc3cc(F)c(O)c(F)c3)ncc2N(C)C(=O)C1C [BID1870] (first compound 1.4 µM, partner dose 0.2 µM)",90.2%,85.4%,140%,146%,89.6%,95.2%,197%,263%,83.9%
"C[C@@H]1CCN(C(=O)CC#N)C[C@@H]1N(C)c1ncnc2[nH]ccc12 + O=C1NC(=O)/C(=C/c2ccc(-c3ccc(F)cc3O)o2)S1 [AS252424] (first compound 1 µM, partner dose 1 µM)",148%,67.7%,100%,105%,137%,129%,73.4%,41.4%,160%
"OCCn1cc(-c2cnc3nnn(Cc4ccc5ncccc5c4)c3n2)cn1 + COc1ccc2c(c1)CCC1C2CCC2(C)C(NCCCCCCN3C(=O)C=CC3=O)CCC12 [U73122] (first compound 1 µM, partner dose 0.4 µM)",168%,70%,55.4%,121%,136%,92.5%,98%,42.5%,83.9%
"O=C(CCCCCCC(=O)Nc1ccccc1)NO [vorinostat] + CC(C)CCN1c2nc(Nc3cc(F)c(O)c(F)c3)ncc2N(C)C(=O)C1C [BID1870] (first compound 0.08 µM, partner dose 0.2 µM)",73.3%,66.9%,74.6%,174%,253%,70.5%,162%,96.1%,66.4%
"O=C(Nc1cccc(Cl)c1)Nc1ncc(CCNc2ncnc3ccsc23)s1 + Oc1nc(-c2ccc(C(F)(F)F)cc2)nc2c1CSCC2 [XAV939] (first compound 0.0008 µM, partner dose 2 µM)",101%,57.6%,97.7%,15.9%,62.1%,45%,104%,49%,72.1%
"Cn1nnc2c(C(N)=O)ncn2c1=O [temozolomide] + c1cc(-c2cnn3cc(-c4ccc(OCCN5CCCCC5)cc4)cnc23)ccn1 [Dorsomorphin] (first compound 2 µM, partner dose 0.4 µM)",126%,34.9%,156%,146%,26.3%,539%,110%,37.9%,170%
"CO[C@@H]1[C@H](N(C)C(=O)c2ccccc2)C[C@H]2O[C@]1(C)n1c3ccccc3c3c4c(c5c6ccccc6n2c5c31)C(=O)NC4 [Midostaurin] + N#Cc1c(O)c2c(-c3ccc(-c4ccccc4O)cc3)csc2[nH]c1=O [A769662] (first compound 0.08 µM, partner dose 2 µM)",60.9%,53.7%,176%,127%,88.5%,74.8%,93%,48.2%,136%
"C=CCn1c(=O)c2cnc(Nc3ccc(N4CCN(C)CC4)cc3)nc2n1-c1cccc(C(C)(C)O)n1 + CC(C)CCN1c2nc(Nc3cc(F)c(O)c(F)c3)ncc2N(C)C(=O)C1C [BID1870] (first compound 0.02 µM, partner dose 0.2 µM)",109%,233%,94.5%,356%,75.8%,116%,124%,104%,103%
"Cc1cc(N2CCOCC2)cc2[nH]c(-c3c(NC[C@@H](O)c4cccc(Cl)c4)cc[nH]c3=O)nc12 + c1cc(-c2cnn3cc(-c4ccc(OCCN5CCCCC5)cc4)cnc23)ccn1 [Dorsomorphin] (first compound 0.2 µM, partner dose 0.4 µM)",116%,108%,239%,62.2%,232%,153%,103%,43.4%,166%
"O=C(CCCCCCC(=O)Nc1ccccc1)NO [vorinostat] + c1cc(-c2cnn3cc(-c4ccc(OCCN5CCCCC5)cc4)cnc23)ccn1 [Dorsomorphin] (first compound 0.08 µM, partner dose 0.4 µM)",51.7%,115%,89.5%,74.5%,128%,55.8%,84.2%,73.5%,79.7%
"OCCn1cc(-c2cnc3nnn(Cc4ccc5ncccc5c4)c3n2)cn1 + c1cc(-c2cnn3cc(-c4ccc(OCCN5CCCCC5)cc4)cnc23)ccn1 [Dorsomorphin] (first compound 1 µM, partner dose 0.4 µM)",78.8%,186%,190%,50.6%,86.2%,130%,124%,24.1%,141%
"Cn1c(Nc2ccc(C(F)(F)F)cc2)nc2cc(Oc3ccnc(-c4ncc(C(F)(F)F)[nH]4)c3)ccc21 + COc1ccc(-c2ccc3c(N4CCOCC4)nc(N4C[C@@H](C)O[C@@H](C)C4)nc3n2)cc1CO [KU0063794] (first compound 0.08 µM, partner dose 0.02 µM)",120%,151%,197%,304%,112%,187%,114%,96.9%,82.2%
"CO[C@@H]1[C@H](N(C)C(=O)c2ccccc2)C[C@H]2O[C@]1(C)n1c3ccccc3c3c4c(c5c6ccccc6n2c5c31)C(=O)NC4 [Midostaurin] + Oc1nc(-c2ccc(C(F)(F)F)cc2)nc2c1CSCC2 [XAV939] (first compound 0.08 µM, partner dose 2 µM)",98.4%,327%,96.7%,52.2%,134%,79.4%,102%,108%,63.5%
"OCCn1cc(-c2cnc3nnn(Cc4ccc5ncccc5c4)c3n2)cn1 + COc1ccc(-c2ccc3c(N4CCOCC4)nc(N4C[C@@H](C)O[C@@H](C)C4)nc3n2)cc1CO [KU0063794] (first compound 1 µM, partner dose 0.02 µM)",92.2%,114%,120%,76.6%,88.5%,314%,90.1%,82.7%,152%
"Cn1cncc1[C@@](N)(c1ccc(Cl)cc1)c1ccc2c(c1)c(-c1cccc(Cl)c1)cc(=O)n2C [tipifarnib] + CC(C)CCN1c2nc(Nc3cc(F)c(O)c(F)c3)ncc2N(C)C(=O)C1C [BID1870] (first compound 0.01 µM, partner dose 0.2 µM)",121%,231%,32%,626%,133%,250%,126%,194%,74%
"C[C@@H]1CCN(C(=O)CC#N)C[C@@H]1N(C)c1ncnc2[nH]ccc12 + c1cc(-c2cnn3cc(-c4ccc(OCCN5CCCCC5)cc4)cnc23)ccn1 [Dorsomorphin] (first compound 1 µM, partner dose 0.4 µM)",68.9%,96.4%,86.1%,112%,39.7%,53.8%,113%,29.1%,81.7%
"Nc1cccc2c1CN(C1CCC(=O)NC1=O)C2=O (stereo not drawn) [lenalidomide] + COc1ccc2c(c1)CCC1C2CCC2(C)C(NCCCCCCN3C(=O)C=CC3=O)CCC12 [U73122] (first compound 1 µM, partner dose 0.4 µM)",91.4%,50.3%,145%,147%,96.3%,82.3%,97.8%,150%,78.6%
"Cn1c(Nc2ccc(C(F)(F)F)cc2)nc2cc(Oc3ccnc(-c4ncc(C(F)(F)F)[nH]4)c3)ccc21 + CCCCCCCCCCCC1=C(O)C(=O)C=C(O)C1=O [Embelin] (first compound 0.08 µM, partner dose 1.2 µM)",124%,92%,176%,529%,106%,672%,105%,42%,230%
"Cc1nc(Nc2ncc(C(=O)Nc3c(C)cccc3Cl)s2)cc(N2CCN(CCO)CC2)n1 [dasatanib] + COc1cc(N2CCC(N3CCN(C)CC3)CC2)ccc1Nc1ncc(Cl)c(Nc2ccccc2S(=O)(=O)C(C)C)n1 [NVP-TAE684] (first compound 0.004 µM, partner dose 0.08 µM)",80.3%,277%,145%,189%,308%,322%,117%,113%,100%
"C[C@]1(c2nc3c(C(N)=O)cccc3[nH]2)CCCN1 [Veliparib] + COC(=O)c1sccc1S(=O)(=O)Nc1ccc(Nc2ccccc2)cc1OC [GSK0660] (first compound 1.4 µM, partner dose 1 µM)",61.9%,124%,94.9%,105%,160%,69.4%,106%,61.5%,91.2%
"CC(C)(C)c1cnc(CSc2cnc(NC(=O)C3CCNCC3)s2)o1 + O=c1cc(-c2cccc3c2Sc2ccccc2S3)oc(N2CCOCC2)c1 [KU55933] (first compound 0.01 µM, partner dose 1 µM)",78.4%,54.9%,26%,37.6%,92.9%,46.8%,101%,58.7%,88.8%
"Cc1nc(Nc2ncc(C(=O)Nc3c(C)cccc3Cl)s2)cc(N2CCN(CCO)CC2)n1 [dasatanib] + CCc1ccc(CCOc2ccc(CC3SC(=O)NC3=O)cc2)nc1 [pioglitazone] (first compound 0.004 µM, partner dose 2 µM)",84.6%,128%,157%,84.1%,131%,224%,96.2%,79%,90.3%

# Only cleaved PARP positive nuclei fraction (C32), cleaved PARP positive nuclei fraction (CBRC017) and cleaved PARP positive nuclei fraction (CBRC016) (two entries from above):
Compound	cleaved PARP positive nuclei fraction (C32)	cleaved PARP positive nuclei fraction (CBRC017)	cleaved PARP positive nuclei fraction (CBRC016)
C[C@]1(c2nc3c(C(N)=O)cccc3[nH]2)CCCN1 [Veliparib] + COC(=O)c1sccc1S(=O)(=O)Nc1ccc(Nc2ccccc2)cc1OC [GSK0660] (first compound 1.4 µM, partner dose 1 µM)	160%	91.2%	61.5%
CC(C)(C)c1cnc(CSc2cnc(NC(=O)C3CCNCC3)s2)o1 + O=c1cc(-c2cccc3c2Sc2ccccc2S3)oc(N2CCOCC2)c1 [KU55933] (first compound 0.01 µM, partner dose 1 µM)	92.9%	88.8%	58.7%
